The target in the experiment is T1, wild-type AIP (coimmunoprecipitation) (human) (UniProt O00170).
T1 sequence: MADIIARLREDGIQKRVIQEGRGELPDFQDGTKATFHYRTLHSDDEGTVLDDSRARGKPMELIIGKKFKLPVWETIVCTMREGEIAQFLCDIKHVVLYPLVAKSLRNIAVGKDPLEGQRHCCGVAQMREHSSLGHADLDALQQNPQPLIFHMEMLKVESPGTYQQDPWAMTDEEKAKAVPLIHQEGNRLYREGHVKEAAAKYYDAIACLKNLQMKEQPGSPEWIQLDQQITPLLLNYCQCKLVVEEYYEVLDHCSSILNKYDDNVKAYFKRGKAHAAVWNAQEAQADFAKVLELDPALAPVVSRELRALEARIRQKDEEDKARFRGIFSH
In words: co-IP; coimmunoprecipitation with WT AIP to validate the pull-down hits; cells, tags and bait not told in the text shown.

By UniProt entry, the sequences of proteins in these tests, tags left out.
UniProt P63208: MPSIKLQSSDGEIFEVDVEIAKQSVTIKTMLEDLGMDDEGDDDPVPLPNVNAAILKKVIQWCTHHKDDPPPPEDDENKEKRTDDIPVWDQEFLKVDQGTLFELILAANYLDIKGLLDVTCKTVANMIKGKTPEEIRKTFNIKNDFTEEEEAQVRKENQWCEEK

Results are given in words; binding and its absence hold for the method and conditions named. In cells and extracts the contact can be indirect. Some entries that bind do so weakly or less than the wild type.

Consider “SKP1 (coimmunoprecipitation) (from UniProt P63208 1-163)”, for which the binding entry is recorded as “no binding”.

B1: FBXO3 (coimmunoprecipitation) (protein, UniProt Q9UK99 1-471)
chain: MAAMETETAPLTLESLPTDPLLLILSFLDYRDLINCCYVSRRLSQLSSHDPLWRRHCKKYWLISEEEKTQKNQCWKSLFIDTYSDVGRYIDHYAAIKKAWDDLKKYLEPRCPRMVLSLKEGAREEDLDAVEAQIGCKLPDDYRCSYRIHNGQKLVVPGLLGSMALSNHYRSEDLLDVDTAAGGFQQRQGLKYCLPLTFCIHTGLSQYIAVEAAEGRNKNEVFYQCPDQMARNPAAIDMFIIGATFTDWFTSYVKNVVSGGFPIIRDQIFRYVHDPECVATTGDITVSVSTSFLPELSSVHPPHYFFTYRIRIEMSKDALPEKACQLDSRYWRITNAKGDVEEVQGPGVVGEFPIISPGRVYEYTSCTTFSTTSGYMEGYYTFHFLYFKDKIFNVAIPRFHMACPTFRVSIARLEMGPDEYEEMEEEEEEEEEEDEDDDSADMDESDEDDEEERRRRVFDVPIRRRRCSRLF
For the molecule B1, the binding entry is “binds”.
